# Reference: the supplement of paper PMC5949888
# Most values lie at the floor of the assay. Slopes are relative: functional sequences can read slightly below zero.
# System: Saccharomyces cerevisiae PS128 hsf1 delta, HSF1(1-493) fusion
# Experiment: growth estimate (transactivation domain function in HSF1 fusion, heat-shock survival) (a.u. (slope of normalised read count over time)); higher = stronger growth at 37°C, i.e. more transactivation activity
# Conditions: library: random library
row,Substance,growth estimate
1,SDVTVYEVYVSCRSGTANQQ,< -0.25
2,FLPFF,< -0.25
3,AGQFKSFVHT,< -0.25
4,SNERFSEGRMCFCVAEAHRF,< -0.25
5,VRCGALDCGFRR,< -0.25
6,SGKKKHTFYSAHLRRLLYQD,< -0.25
7,SLIL,-0.246
8,MESVVRQPPRRLSAVGPCLV,< -0.25
9,TEEVINIMH,< -0.25
10,PFVPFLCRI,< -0.25
11,LVARLDLLILRCSSFVYGVS,< -0.25
12,QSVLGAIETSDDGDSVAREA,< -0.25
13,GAVGALQSNL,< -0.25
14,LHFRPLPRITGSVGFAPMVF,< -0.25
15,RSETFQHRCCL,< -0.25
16,SVNIVTRGASRQTFG,< -0.25
17,CGERSGASQMR,< -0.25
18,FRVGELDPSRHSPGPRWRCS,< -0.25
19,ICWEYPDGNRWGRHVPLVCH,< -0.25
20,VQAFATGSDARITRGCSQMD,< -0.25
21,RKGGSPYFVDTRRSYYTKRG,< -0.25
22,KTRHSGRRTVDSQINDTNGP,< -0.25
23,VPQYSQYPERR,< -0.25

# Looked up one by one from above, 2 records:
row,Substance,growth estimate
22,KTRHSGRRTVDSQINDTNGP,< -0.25
9,TEEVINIMH,< -0.25

# (cont.)

row,Substance,growth estimate
1,ALASACLVAQGGACRGGIDV,< -0.25
2,IAGW,< -0.25
3,MGG,< -0.25
4,TRRRSLDETGAQHYAHTRYR,< -0.25
5,LISHRS,< -0.25
6,WHARTAYIRVVSCPNGARRP,< -0.25
7,QIRN,< -0.25
8,HSEDSVTR,< -0.25
9,TDGGSNV,< -0.25
10,KIETRIQTSGL,< -0.25
11,KTAIAA,< -0.25
12,RGRNKAGGSRWRPHSTLGRS,< -0.25
13,IRGINVPALD,< -0.25
14,ENDRFFSGTTPDHIRGAVHC,< -0.25
15,AEMDLEHVGARSNWLTGSLA,< -0.25
16,LCIDQ,< -0.25
17,QRVGHTKFWPKFS,< -0.25
18,RTLYGAHGVSWRNLTGQNIR,< -0.25
19,KSYLSNERPYG,< -0.25
20,KQVAGSGHLGDR,< -0.25
21,RRFESTVGR,< -0.25
22,HAN,< -0.25
23,IRIEGSYRGTGST,< -0.25

row,Substance,growth estimate
1,WFDFMVSSRWTPRGIP,< -0.25
2,WHCLRISGPIGIHNP,< -0.25
3,GAYARLCTYSVVMAQLLTAG,< -0.25
4,RGGFGKKDGAPLGVQVSSAS,< -0.25
5,SREVVLNEAS,< -0.25
6,MFRFGR,< -0.25
7,NVLEMAFYNSPT,< -0.25
8,TIARTGAERGPGDRTLDLDS,< -0.25
9,RKGPLVRRVALARSTSLRLV,< -0.25
10,VRENA,-0.246
11,PGM,< -0.25
12,GLLSVTPVSDCVEPWHFAVD,< -0.25
13,LLTCR,< -0.25
14,PLNVWPSLN,< -0.25
15,DGRL,< -0.25
16,LVGYGLRPLQFAICGTPRSR,< -0.25
17,SYAQTSPHHYSHSMRLARIP,< -0.25
18,ANRNRILEGGQHRAHASLGS,< -0.25
19,SFPDYIG,-0.245
20,PACCLPLFDRYNSI,-0.158
21,TLKISLKQLASRSTITDRIT,< -0.25
22,GGV,< -0.25
23,SKEVAAQLIGTSRL,< -0.25

row,Substance,growth estimate
1,YREIM,< -0.25
2,RRCCMSKVFRSSGYVPRAGP,< -0.25
3,SIDGYMGPWRDKDWFTP,< -0.25
4,RLGGHRGARKCGLTTRMIRN,< -0.25
5,TKMQQVQPSVCFRRQSSGSL,< -0.25
6,ALRRVKCHRA,< -0.25
7,LARPCIG,< -0.25
8,SDTPPPVWSSVVCSIRFVVN,< -0.25
9,GWLIDYQYLTHFT,< -0.25
10,HPRGRCWALQIRQDAGAQCA,< -0.25
11,SRACKFVDQDQYSTVPPFRE,< -0.25
12,TPFDGGVRVRLSDSGTMATL,< -0.25
13,YCD,< -0.25
14,AWHSLRICFIGQ,< -0.25
15,HPKSETTGPCRELKAVWGGS,< -0.25
16,PRSDAL,< -0.25
17,EKRHDGRSWFEGH,< -0.25
18,GGTEGGSQTAHTENAFGVCP,< -0.25
19,PLLASS,< -0.25
20,VLLLNSSRIGQFFVF,< -0.25
21,HRANAMFWP,< -0.25
22,LYA,< -0.25
23,RLRVRLHKRLARLRFG,< -0.25

row,Substance,growth estimate
1,SPPLLAKVLAWFWVANRRE,< -0.25
2,FDPKPSIWYYGLMNVHPNTL,< -0.25
3,IAVSKPS,< -0.25
4,KQQWQSPQSGEGGSPLSGHS,< -0.25
5,QGVSEAESY,< -0.25
6,LKVLVRLDGR,< -0.25
7,VGIV,< -0.25
8,IKLRAGPLTLG,-0.243
9,LSKDQVLR,< -0.25
10,VLLIARSSFQKGVSRP,< -0.25
11,SYMSGTLNYKLRYARVQISV,< -0.25
12,MCSGSSTTSLCERRSTAMRR,-0.229
13,GGRAYLTP,< -0.25
14,DWRPLKVSVLT,< -0.25
15,DSQCLEPP,< -0.25
16,GRLFMPTGTRASPLVRRDRQ,< -0.25
17,LNSWCLRLPAVGVVNPLNPR,< -0.25
18,VAQYLSL,< -0.25
19,SHNRWVRRK,< -0.25
20,EGMAA,< -0.25
21,RRAIVGWLCTA,< -0.25
22,TLRSMA,< -0.25
23,QLSLRAGFTKVINPQLRKVL,-0.245

# Part of the list above, as tab-separated lines.
row	Substance	growth estimate
13	YCD	< -0.25
14	AWHSLRICFIGQ	< -0.25

# Continued:

row,Substance,growth estimate
1,VACRPCANVLEQLASRGVRP,< -0.25
2,TGLTPTRRKIPATKLVMKTV,< -0.25
3,YGGGGLKATWPMELRLIR,< -0.25
4,RSEQIHVIKKPTQCGVISPQ,< -0.25
5,TCHV,< -0.25
6,DNEHDRS,< -0.25
7,LTPGKSPLYATRWYSDEYVD,< -0.25
8,HPEFGWG,< -0.25
9,RTPNVIMGLVSPVAYPSSLD,< -0.25
10,YRCHIVVYCGQFFTMHPGSH,< -0.25
11,ELSQRRGLLASAVRCSTLAP,< -0.25
12,SSGIV,< -0.25
13,PSSVLAGSKSR,< -0.25
14,YTNADFTWAIPGGLGS,< -0.25
15,VVGSLLLIAFVGCSDVWKQR,< -0.25
16,AFGVTLSRRFLNQRHGDCWG,< -0.25
17,SSVIHARPI,< -0.25
18,TRCSAQRLPGQPVRVW,< -0.25
19,YTARYISPSDSRPDAEERAV,< -0.25
20,TNFPLCEDVEPRNIGSNDAR,< -0.25
21,PAAYRD,< -0.25
22,TVKFGLGNPASNMVGRPPSA,< -0.25
23,VGNLRCVQLNAIIG,< -0.25

row,Substance,growth estimate
1,YRCRPEASKSGNQYVDGVYL,< -0.25
2,NDAGKPTERASGAIHAQLPT,< -0.25
3,VLCEAVPAKEGQSCRGPTMP,< -0.25
4,SCGVR,< -0.25
5,GPLISWRRGVQCSHHQFYSA,< -0.25
6,TRYFYAAVPQHLTCF,< -0.25
7,GMRGTKRSL,< -0.25
8,IGKSTMGMFAPQLKRTLLYS,< -0.25
9,ESKDMFATFMRATEVRGKRT,< -0.25
10,LCIVACTRLRNADLLSGAVT,< -0.25
11,GGYPGDDPKRPKGSTAPLK,< -0.25
12,AIPRKQILGVYLRTYPLRER,< -0.25
13,NGEATTV,< -0.25
14,SVCDQLSNLTDTRLAVHCSA,< -0.25
15,IHFWVLLLEAAGKRRSVRSG,< -0.25
16,LFMGGWFRARLVTRLALEQL,< -0.25
17,EIVRYFNYTPSQGLLSVAVR,< -0.25
18,QKSDGFGNYRSTSIWRIK,< -0.25
19,PITVQLVESEPLSGNTWAED,< -0.25
20,LVQERSVNKHGNVVV,< -0.25
21,RSQGFECQIVATTLGGNALS,< -0.25
22,DRVTALGKQQY,-0.245
